Laboratory results from PMC11213201.
These are yes or no findings as the source states them, for the method shown. Binding seen in cells or lysates may run through a third protein. Here binding means that the protein was enriched with, or labelled near, the bait; the list need not be complete.

Protein sequences, listed by entry. Tags and fused reporters are not part of them.
UniProt Q9BQ24: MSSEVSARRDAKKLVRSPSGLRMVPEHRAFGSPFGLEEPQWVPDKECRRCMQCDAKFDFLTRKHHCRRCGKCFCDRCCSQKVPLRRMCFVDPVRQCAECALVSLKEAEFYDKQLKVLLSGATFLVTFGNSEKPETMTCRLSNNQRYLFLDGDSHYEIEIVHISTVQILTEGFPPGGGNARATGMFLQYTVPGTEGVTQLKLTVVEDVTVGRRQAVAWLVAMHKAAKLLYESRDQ
UniProt Q9NT62: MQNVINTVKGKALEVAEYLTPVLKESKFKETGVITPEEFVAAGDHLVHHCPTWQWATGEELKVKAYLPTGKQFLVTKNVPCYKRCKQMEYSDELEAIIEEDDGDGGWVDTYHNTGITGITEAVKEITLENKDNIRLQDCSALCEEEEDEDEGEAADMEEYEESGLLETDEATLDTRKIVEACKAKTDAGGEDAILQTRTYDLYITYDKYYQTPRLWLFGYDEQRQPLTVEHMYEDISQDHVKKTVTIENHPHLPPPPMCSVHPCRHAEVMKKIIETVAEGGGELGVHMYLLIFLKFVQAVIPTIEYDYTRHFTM
UniProt P21283: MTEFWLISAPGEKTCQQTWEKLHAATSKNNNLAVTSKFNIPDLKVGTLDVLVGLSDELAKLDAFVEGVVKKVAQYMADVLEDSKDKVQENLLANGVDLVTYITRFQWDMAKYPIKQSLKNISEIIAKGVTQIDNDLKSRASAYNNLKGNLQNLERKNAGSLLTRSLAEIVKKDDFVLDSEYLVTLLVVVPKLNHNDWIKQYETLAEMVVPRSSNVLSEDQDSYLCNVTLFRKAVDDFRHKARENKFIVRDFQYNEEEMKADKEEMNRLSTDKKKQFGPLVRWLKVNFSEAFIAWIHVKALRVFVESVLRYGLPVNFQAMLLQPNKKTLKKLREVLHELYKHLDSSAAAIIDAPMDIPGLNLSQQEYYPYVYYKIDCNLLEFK
UniProt P36543: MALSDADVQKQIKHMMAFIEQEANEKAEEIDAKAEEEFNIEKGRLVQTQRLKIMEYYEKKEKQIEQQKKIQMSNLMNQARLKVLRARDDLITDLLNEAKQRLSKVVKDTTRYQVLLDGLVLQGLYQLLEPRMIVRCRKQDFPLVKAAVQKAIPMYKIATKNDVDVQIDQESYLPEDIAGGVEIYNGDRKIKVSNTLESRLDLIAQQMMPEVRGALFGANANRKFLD
UniProt P21281: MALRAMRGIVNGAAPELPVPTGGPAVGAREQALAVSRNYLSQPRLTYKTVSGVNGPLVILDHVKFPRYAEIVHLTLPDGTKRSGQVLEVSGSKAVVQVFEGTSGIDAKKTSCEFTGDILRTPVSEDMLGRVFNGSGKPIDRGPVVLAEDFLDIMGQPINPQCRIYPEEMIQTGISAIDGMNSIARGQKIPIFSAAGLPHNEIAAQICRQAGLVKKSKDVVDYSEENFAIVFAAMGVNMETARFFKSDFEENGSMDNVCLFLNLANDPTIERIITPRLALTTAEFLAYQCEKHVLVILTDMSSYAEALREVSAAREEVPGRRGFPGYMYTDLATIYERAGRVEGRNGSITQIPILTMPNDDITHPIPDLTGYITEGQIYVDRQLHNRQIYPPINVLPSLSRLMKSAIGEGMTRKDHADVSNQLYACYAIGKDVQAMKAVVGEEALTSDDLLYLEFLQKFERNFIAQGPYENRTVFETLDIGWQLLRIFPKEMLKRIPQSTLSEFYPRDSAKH
UniProt P51148: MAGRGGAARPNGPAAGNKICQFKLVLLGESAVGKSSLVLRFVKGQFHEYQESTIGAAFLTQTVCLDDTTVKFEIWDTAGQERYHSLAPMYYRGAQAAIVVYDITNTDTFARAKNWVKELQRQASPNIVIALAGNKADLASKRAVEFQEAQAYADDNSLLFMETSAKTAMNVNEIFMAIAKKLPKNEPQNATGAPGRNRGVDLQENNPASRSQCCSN
UniProt Q9Y5K8: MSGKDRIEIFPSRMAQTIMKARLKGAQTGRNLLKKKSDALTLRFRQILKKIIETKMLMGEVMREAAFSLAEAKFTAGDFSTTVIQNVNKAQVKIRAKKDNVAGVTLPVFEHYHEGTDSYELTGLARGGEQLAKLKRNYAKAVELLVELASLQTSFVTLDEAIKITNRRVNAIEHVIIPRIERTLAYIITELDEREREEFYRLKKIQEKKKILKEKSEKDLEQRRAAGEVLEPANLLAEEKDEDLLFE
UniProt P20339: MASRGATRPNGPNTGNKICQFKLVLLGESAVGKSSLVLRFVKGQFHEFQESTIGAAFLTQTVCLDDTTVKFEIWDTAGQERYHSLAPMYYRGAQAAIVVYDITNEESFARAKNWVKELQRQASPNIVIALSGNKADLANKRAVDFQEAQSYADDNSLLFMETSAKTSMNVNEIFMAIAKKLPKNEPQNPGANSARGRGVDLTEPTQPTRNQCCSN
UniProt Q9UI12: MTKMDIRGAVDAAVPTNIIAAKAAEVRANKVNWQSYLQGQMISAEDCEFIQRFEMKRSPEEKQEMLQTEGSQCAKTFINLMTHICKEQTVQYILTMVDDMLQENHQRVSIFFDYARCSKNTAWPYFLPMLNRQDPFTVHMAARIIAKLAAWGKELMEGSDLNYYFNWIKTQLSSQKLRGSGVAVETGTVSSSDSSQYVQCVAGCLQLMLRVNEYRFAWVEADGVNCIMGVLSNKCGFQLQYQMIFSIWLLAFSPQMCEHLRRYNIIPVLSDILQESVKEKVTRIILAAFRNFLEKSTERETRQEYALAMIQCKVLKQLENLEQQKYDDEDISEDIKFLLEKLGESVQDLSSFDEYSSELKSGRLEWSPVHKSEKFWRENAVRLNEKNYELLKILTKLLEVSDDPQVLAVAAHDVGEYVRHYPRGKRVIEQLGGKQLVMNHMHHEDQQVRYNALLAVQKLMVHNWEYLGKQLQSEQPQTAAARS

Each substance was assayed against ZFYVE21-GFP (UniProt Q9BQ24) (assay: affinity purification with mass spectrometry; GFP-Trap agarose pulldown from ZFYVE21-GFP HUVECs treated with vehicle or PRA 25% v/v; trypsin digestion, label-free MS-LC; three preparations).
In the case of ATG3 (from UniProt Q9NT62 1-314), the binding is reported as “binds”.
In the case of ATP6V1C1 (from UniProt P21283 1-382), the binding is reported as “binds”.
With ATP6V1E1 (from UniProt P36543 1-226) the binding was “binds”.
In the case of ATP6V1B2 (from UniProt P21281 1-511), the binding is reported as “binds”.
In the case of Rab5C (from UniProt P51148 1-216), the binding is reported as “binds”.
For ATP6V1D (from UniProt Q9Y5K8 1-247), the binding was “binds”.
In the case of Rab5A (from UniProt P20339 1-215), the binding is reported as “binds”.
ATP6V1H (from UniProt Q9UI12 1-483) was tested, and the binding was “binds”.
